From PMC10334757 come the findings set out here.

This assay deals with HIV-1 Gag (HIV-1 (strain RF)). The experiment in a line: co-IP; HIVRF-infected H9 cells lysed at timepoints 0 to 48 h; Gag immunoprecipitated, SDS-PAGE, immunoblot with an antibody against nSMase2. A general note: In western blotting, separated proteins are transferred to a membrane and probed.

Results are given in words; binding and its absence hold for the method and conditions named. Binding seen in cells or lysates may run through a third protein. Binding calls can cover weak binding; strength is not graded here.

B1: neutral sphingomyelinase 2 (nSMase2) (enzyme, UniProt Q9NY59 1-655)
chain: MVLYTTPFPNSCLSALHCVSWALIFPCYWLVDRLAASFIPTTYEKRQRADDPCCLQLLCTALFTPIYLALLVASLPFAFLGFLFWSPLQSARRPYIYSRLEDKGLAGGAALLSEWKGTGPGKSFCFATANVCLLPDSLARVNNLFNTQARAKEIGQRIRNGAARPQIKIYIDSPTNTSISAASFSSLVSPQGGDGVARAVPGSIKRTASVEYKGDGGRHPGDEAANGPASGDPVDSSSPEDACIVRIGGEEGGRPPEADDPVPGGQARNGAGGGPRGQTPNHNQQDGDSGSLGSPSASRESLVKGRAGPDTSASGEPGANSKLLYKASVVKKAAARRRRHPDEAFDHEVSAFFPANLDFLCLQEVFDKRAATKLKEQLHGYFEYILYDVGVYGCQGCCSFKCLNSGLLFASRYPIMDVAYHCYPNKCNDDALASKGALFLKVQVGSTPQDQRIVGYIACTHLHAPQEDSAIRCGQLDLLQDWLADFRKSTSSSSAANPEELVAFDVVCGDFNFDNCSSDDKLEQQHSLFTHYRDPCRLGPGEEKPWAIGTLLDTNGLYDEDVCTPDNLQKVLESEEGRREYLAFPTSKSSGQKGRKELLKGNGRRIDYMLHAEEGLCPDWKAEVEEFSFITQLSGLTDHLPVAMRLMVSSGEEEA
Turning to B1, the binding result was “binds”.
